PubChem BioAssay AID1224830, NIAID – 2016

Assay: 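Genes whose knock-down alters the TNF-alpha reporter response to LPS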 (primary screen)
System: human THP-1 monocytic leukaemia cells, TNF dual-luciferase reporter clone, PMA-differentiated to macrophage-like cells
Reagent: siRNA pool against human genes, 50 nM
Timing: LPS for 4 h, given about 3 days after siRNA transfection
Treatment: bacterial LPS (TLR4 ligand), 10 ng/ml
Measured: 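Ratio of firefly to renilla light, scaled to the plate median and expressed as a robust z-score per replicate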
Direction: TNF reporter robust z-score: higher = stronger TNF reporter response to LPS
Active means: 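a well is active when its z-score exceeds 2.8 or falls below -1.5; control wells carry no call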
This is one part, drawn at random, of about 18,000 reagents. Of all reagents, about 2,900 (16%) got an active call. 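Calls are made per well; low scores hint the gene aids the LPS response, high scores that it dampens it.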 A number with no mark means an inactive call. Repeated entries: four replicate wells of each siRNA pool.

REXO1L1P (REXO1 like 1, pseudogene) | TNF reporter robust z-score: 1.56
REXO1L1P (REXO1 like 1, pseudogene) | TNF reporter robust z-score: 0.64
REXO1L1P (REXO1 like 1, pseudogene) | TNF reporter robust z-score: 1.07
REXO1L1P (REXO1 like 1, pseudogene) | TNF reporter robust z-score: 1.68
LDAH (lipid droplet associated hydrolase) | TNF reporter robust z-score: 0.81
LDAH (lipid droplet associated hydrolase) | TNF reporter robust z-score: -0.09
LDAH (lipid droplet associated hydrolase) | TNF reporter robust z-score: 1.24
LDAH (lipid droplet associated hydrolase) | TNF reporter robust z-score: 0.44
AP3B1 (adaptor related protein complex 3 subunit beta 1) | TNF reporter robust z-score: -1.4
AP3B1 (adaptor related protein complex 3 subunit beta 1) | TNF reporter robust z-score: -1.12
AP3B1 (adaptor related protein complex 3 subunit beta 1) | TNF reporter robust z-score: -0.65
AP3B1 (adaptor related protein complex 3 subunit beta 1) | TNF reporter robust z-score: 0.57
CCDC185 (coiled-coil domain containing 185) | TNF reporter robust z-score: -0.95
CCDC185 (coiled-coil domain containing 185) | TNF reporter robust z-score: -1.23
CCDC185 (coiled-coil domain containing 185) | TNF reporter robust z-score: -0.44
MTX2 (metaxin 2) | TNF reporter robust z-score: -1.41
MTX2 (metaxin 2) | TNF reporter robust z-score: -0.54
MTX2 (metaxin 2) | TNF reporter robust z-score: -0.6
MTX2 (metaxin 2) | TNF reporter robust z-score: 0.6
RPL9 (ribosomal protein L9) | TNF reporter robust z-score: 2.26
RPL9 (ribosomal protein L9) | TNF reporter robust z-score: 0.74
RPL9 (ribosomal protein L9) | TNF reporter robust z-score: 0.5
RPL9 (ribosomal protein L9) | TNF reporter robust z-score: 0.3
GUCY2C (guanylate cyclase 2C) | TNF reporter robust z-score: -0.28
GUCY2C (guanylate cyclase 2C) | TNF reporter robust z-score: 1.67
GUCY2C (guanylate cyclase 2C) | TNF reporter robust z-score: 0.62
GUCY2C (guanylate cyclase 2C) | TNF reporter robust z-score: 0.99
SPCS2 (signal peptidase complex subunit 2) | TNF reporter robust z-score: 0.05
SPCS2 (signal peptidase complex subunit 2) | TNF reporter robust z-score: -1.57 (active)
SPCS2 (signal peptidase complex subunit 2) | TNF reporter robust z-score: -1.03
SPCS2 (signal peptidase complex subunit 2) | TNF reporter robust z-score: 0.13
CCDC71L (coiled-coil domain containing 71 like) | TNF reporter robust z-score: -0.19
CCDC71L (coiled-coil domain containing 71 like) | TNF reporter robust z-score: -1.14
CCDC71L (coiled-coil domain containing 71 like) | TNF reporter robust z-score: -0.96
CCDC71L (coiled-coil domain containing 71 like) | TNF reporter robust z-score: 0.94
KRTAP13-1 (keratin associated protein 13-1) | TNF reporter robust z-score: -1.57 (active)
KRTAP13-1 (keratin associated protein 13-1) | TNF reporter robust z-score: -0.71
KRTAP13-1 (keratin associated protein 13-1) | TNF reporter robust z-score: -0.24
KRTAP13-1 (keratin associated protein 13-1) | TNF reporter robust z-score: -0.14
ZFAND6 (zinc finger AN1-type containing 6) | TNF reporter robust z-score: 0.03
ZFAND6 (zinc finger AN1-type containing 6) | TNF reporter robust z-score: -0.04
ZFAND6 (zinc finger AN1-type containing 6) | TNF reporter robust z-score: -0.6
ZFAND6 (zinc finger AN1-type containing 6) | TNF reporter robust z-score: 1.39
STRA8 (stimulated by retinoic acid 8) | TNF reporter robust z-score: -0.96
STRA8 (stimulated by retinoic acid 8) | TNF reporter robust z-score: -0.32
STRA8 (stimulated by retinoic acid 8) | TNF reporter robust z-score: 0.04
STRA8 (stimulated by retinoic acid 8) | TNF reporter robust z-score: -1.19
NUP210 (nucleoporin 210) | TNF reporter robust z-score: 0.09
NUP210 (nucleoporin 210) | TNF reporter robust z-score: 0.42
NUP210 (nucleoporin 210) | TNF reporter robust z-score: -0.33
NUP210 (nucleoporin 210) | TNF reporter robust z-score: 0.6
ICOS (inducible T cell costimulator) | TNF reporter robust z-score: 0.79
ICOS (inducible T cell costimulator) | TNF reporter robust z-score: 0.31
ICOS (inducible T cell costimulator) | TNF reporter robust z-score: 0.29
ICOS (inducible T cell costimulator) | TNF reporter robust z-score: 0.14
OR7E85BP | TNF reporter robust z-score: 2.47
OR7E85BP | TNF reporter robust z-score: 2.5
OR7E85BP | TNF reporter robust z-score: 2.36
OR7E85BP | TNF reporter robust z-score: 0.44
TRAFD1 (TRAF-type zinc finger domain containing 1) | TNF reporter robust z-score: 0.34
TRAFD1 (TRAF-type zinc finger domain containing 1) | TNF reporter robust z-score: 0.13
TRAFD1 (TRAF-type zinc finger domain containing 1) | TNF reporter robust z-score: 1.46
TRAFD1 (TRAF-type zinc finger domain containing 1) | TNF reporter robust z-score: 1.16

Active calls, among the entries above:
SPCS2 (signal peptidase complex subunit 2) | TNF reporter robust z-score: -1.57 (active)
KRTAP13-1 (keratin associated protein 13-1) | TNF reporter robust z-score: -1.57 (active)
